Data as given in article doi:10.1101/2023.09.15.556569.
Results are given in words; binding and its absence hold for the method and conditions named. Binding seen in cells or lysates may run through a third protein. Some results given as binding are weak or reduced against the parent protein; the word gives no strength.

Chains of the proteins cited; added tags and fusions are not shown. Lines headed by an entry give the natural chain unless they say otherwise; changes in a name come on top.
UniProt O55193: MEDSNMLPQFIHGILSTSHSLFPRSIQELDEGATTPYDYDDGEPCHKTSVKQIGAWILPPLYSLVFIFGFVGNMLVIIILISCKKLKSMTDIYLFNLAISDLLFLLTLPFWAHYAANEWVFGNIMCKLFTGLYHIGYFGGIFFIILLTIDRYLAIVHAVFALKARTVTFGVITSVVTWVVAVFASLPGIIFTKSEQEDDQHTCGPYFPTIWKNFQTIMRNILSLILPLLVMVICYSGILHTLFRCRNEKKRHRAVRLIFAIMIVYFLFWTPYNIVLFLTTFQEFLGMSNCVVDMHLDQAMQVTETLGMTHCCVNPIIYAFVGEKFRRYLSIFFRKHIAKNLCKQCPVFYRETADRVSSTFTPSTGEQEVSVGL
UniProt P32121: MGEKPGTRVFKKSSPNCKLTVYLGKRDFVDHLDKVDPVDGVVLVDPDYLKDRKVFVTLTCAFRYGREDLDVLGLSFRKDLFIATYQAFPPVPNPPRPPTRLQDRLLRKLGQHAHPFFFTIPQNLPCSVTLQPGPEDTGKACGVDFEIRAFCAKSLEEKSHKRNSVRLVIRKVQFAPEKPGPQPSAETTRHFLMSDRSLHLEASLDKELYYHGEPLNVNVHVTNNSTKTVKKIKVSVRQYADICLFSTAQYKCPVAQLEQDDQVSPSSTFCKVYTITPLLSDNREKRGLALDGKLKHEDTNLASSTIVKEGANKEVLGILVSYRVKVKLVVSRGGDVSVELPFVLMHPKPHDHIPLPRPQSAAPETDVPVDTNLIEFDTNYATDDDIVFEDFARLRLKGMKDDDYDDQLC

Molecular target: rat CCR2 receptor fused to GFP10 (rCCR2-GFP10) (rat) (UniProt O55193)
Test: FRET or BRET

binding: binds
Substance: β-arrestin-2-RlucII (R393A) (from UniProt P32121 1-409)
